Assay results published in paper PMC4619689.
Results are given in words; binding and its absence hold for the method and conditions named. In cells and extracts the contact can be indirect. Some binding calls cover weakened binding; strength is not graded here. Where a sequence is shown, tags or fusion partners need not be part of it.

Sequences of proteins named here, by UniProt entry; tags and fusion partners are left off. A change or cut given only in a name is not applied to a line headed by its entry.
UniProt P31245: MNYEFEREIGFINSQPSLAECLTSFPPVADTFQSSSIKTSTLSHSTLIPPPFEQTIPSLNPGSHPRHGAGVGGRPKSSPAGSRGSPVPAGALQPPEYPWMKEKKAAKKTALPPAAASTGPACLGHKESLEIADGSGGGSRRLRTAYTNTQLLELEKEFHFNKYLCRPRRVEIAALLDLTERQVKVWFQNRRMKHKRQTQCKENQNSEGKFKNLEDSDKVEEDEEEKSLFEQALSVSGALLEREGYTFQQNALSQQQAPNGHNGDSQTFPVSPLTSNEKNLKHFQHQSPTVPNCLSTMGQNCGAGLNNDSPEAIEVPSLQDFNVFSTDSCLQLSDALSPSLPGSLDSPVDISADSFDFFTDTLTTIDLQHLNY
UniProt P49639: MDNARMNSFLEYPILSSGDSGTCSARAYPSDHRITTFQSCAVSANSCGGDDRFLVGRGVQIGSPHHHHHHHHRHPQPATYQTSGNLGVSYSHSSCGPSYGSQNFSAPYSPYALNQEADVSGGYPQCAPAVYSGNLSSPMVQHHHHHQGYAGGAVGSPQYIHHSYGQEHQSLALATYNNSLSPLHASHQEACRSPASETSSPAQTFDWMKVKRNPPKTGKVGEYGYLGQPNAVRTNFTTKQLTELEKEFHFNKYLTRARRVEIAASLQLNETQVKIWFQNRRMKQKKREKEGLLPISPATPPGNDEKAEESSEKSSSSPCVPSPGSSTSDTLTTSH
UniProt O43364: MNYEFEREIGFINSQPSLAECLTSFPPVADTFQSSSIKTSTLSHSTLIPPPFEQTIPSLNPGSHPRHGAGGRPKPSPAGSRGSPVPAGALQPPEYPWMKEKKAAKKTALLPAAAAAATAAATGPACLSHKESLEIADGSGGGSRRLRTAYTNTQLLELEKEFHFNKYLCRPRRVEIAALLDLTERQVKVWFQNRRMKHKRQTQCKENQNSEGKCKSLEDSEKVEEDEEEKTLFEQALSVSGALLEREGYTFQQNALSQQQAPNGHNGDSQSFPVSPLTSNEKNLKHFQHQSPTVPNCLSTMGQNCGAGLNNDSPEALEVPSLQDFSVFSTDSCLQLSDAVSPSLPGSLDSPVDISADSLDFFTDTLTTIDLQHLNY
UniProt O43365: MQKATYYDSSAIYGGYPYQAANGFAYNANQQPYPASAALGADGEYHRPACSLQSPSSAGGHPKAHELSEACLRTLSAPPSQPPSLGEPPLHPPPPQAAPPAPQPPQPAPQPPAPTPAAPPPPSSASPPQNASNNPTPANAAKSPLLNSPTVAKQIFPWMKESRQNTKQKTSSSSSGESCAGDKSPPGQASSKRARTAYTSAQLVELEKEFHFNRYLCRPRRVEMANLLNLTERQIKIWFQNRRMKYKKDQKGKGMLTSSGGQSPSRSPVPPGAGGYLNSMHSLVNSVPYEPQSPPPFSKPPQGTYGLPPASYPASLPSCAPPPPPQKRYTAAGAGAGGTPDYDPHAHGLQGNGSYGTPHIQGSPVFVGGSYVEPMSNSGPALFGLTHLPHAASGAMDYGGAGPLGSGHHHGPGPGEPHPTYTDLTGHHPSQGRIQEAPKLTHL
UniProt P14653: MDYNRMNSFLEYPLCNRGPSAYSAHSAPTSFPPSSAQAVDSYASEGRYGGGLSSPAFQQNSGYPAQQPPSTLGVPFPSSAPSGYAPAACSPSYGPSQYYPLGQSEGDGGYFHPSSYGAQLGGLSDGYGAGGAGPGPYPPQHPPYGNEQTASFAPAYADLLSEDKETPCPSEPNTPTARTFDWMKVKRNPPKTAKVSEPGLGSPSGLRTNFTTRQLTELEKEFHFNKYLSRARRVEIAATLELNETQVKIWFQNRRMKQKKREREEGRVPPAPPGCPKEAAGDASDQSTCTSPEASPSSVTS
UniProt P14652: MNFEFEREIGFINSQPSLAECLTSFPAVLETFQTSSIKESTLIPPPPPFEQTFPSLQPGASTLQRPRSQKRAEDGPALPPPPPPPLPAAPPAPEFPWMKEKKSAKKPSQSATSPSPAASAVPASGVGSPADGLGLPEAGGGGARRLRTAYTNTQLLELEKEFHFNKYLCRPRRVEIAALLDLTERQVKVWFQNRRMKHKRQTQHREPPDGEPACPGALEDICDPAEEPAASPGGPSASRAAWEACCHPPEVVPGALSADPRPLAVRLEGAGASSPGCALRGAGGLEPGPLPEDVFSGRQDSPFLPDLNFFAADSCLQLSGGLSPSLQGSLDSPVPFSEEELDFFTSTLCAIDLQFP
UniProt P09067: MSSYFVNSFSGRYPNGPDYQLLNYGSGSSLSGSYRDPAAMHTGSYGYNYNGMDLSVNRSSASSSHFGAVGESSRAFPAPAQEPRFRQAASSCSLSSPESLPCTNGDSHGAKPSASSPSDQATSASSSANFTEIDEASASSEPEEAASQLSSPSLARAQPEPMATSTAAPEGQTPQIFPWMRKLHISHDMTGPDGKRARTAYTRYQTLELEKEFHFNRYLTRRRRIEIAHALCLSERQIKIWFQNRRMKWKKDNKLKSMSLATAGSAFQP
UniProt P09017: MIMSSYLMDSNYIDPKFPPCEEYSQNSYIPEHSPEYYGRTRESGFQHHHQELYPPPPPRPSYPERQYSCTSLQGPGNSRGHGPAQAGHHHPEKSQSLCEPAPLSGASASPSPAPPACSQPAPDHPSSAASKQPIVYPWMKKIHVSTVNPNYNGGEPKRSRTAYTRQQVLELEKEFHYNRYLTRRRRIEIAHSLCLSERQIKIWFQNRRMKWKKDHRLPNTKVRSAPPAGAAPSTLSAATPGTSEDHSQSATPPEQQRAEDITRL
UniProt O43248: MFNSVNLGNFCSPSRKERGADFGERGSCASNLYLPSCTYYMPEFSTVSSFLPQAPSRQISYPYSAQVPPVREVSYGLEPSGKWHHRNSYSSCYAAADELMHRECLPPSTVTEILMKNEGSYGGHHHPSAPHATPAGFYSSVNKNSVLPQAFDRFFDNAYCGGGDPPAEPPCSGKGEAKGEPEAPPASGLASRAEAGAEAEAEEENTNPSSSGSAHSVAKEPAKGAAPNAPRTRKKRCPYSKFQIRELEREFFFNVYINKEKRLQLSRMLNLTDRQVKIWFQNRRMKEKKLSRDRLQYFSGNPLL
UniProt P28358: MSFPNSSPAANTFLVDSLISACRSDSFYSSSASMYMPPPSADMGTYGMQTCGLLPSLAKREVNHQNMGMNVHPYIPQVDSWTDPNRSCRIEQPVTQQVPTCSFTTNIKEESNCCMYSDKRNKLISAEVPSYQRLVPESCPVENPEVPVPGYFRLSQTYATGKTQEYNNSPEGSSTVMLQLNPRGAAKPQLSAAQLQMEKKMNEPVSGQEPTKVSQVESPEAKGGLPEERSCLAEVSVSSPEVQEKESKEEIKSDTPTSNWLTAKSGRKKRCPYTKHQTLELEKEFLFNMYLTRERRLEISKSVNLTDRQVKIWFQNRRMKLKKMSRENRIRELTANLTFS
UniProt P46527: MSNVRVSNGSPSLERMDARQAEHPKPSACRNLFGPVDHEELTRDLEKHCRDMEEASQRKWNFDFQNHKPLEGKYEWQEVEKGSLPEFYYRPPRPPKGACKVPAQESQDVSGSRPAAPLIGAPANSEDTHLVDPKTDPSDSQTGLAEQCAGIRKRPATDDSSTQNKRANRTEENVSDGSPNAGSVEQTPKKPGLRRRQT

T1: RCHY1 (human), BiFC fusion (human), Q96PM5
T1 chain: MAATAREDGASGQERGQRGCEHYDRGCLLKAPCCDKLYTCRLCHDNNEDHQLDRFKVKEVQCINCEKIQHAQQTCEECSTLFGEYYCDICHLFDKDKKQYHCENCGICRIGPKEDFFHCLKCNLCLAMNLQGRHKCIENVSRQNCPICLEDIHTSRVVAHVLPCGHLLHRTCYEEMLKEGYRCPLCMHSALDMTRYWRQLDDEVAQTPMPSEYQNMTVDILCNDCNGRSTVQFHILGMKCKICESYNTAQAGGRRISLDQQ

T2: Rchy1 (mouse), BiFC fusion (mouse) (UniProt Q9CR50)
T2 sequence: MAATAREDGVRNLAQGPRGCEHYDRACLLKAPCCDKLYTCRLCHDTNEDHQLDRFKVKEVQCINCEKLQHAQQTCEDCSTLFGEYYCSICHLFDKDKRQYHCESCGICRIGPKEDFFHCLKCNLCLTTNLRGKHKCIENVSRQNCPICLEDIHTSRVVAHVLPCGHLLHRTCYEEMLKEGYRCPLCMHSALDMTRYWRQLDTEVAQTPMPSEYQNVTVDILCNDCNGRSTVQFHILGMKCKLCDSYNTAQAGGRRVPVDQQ

T3: RCHY1 (human), BiFC fusion (human) (UniProt Q96PM5)
T3 sequence: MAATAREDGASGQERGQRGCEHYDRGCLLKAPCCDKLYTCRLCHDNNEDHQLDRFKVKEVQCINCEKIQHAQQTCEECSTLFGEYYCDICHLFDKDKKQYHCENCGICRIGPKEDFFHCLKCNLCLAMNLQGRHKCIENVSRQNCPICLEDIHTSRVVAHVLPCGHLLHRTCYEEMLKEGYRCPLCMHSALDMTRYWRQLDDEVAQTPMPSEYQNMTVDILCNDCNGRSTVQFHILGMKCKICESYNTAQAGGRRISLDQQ

B1: RCHY1 (human), BiFC fusion, Q96PM5 1-261 (protein)
chain: MAATAREDGASGQERGQRGCEHYDRGCLLKAPCCDKLYTCRLCHDNNEDHQLDRFKVKEVQCINCEKIQHAQQTCEECSTLFGEYYCDICHLFDKDKKQYHCENCGICRIGPKEDFFHCLKCNLCLAMNLQGRHKCIENVSRQNCPICLEDIHTSRVVAHVLPCGHLLHRTCYEEMLKEGYRCPLCMHSALDMTRYWRQLDDEVAQTPMPSEYQNMTVDILCNDCNGRSTVQFHILGMKCKICESYNTAQAGGRRISLDQQ

Biological target: T1, RCHY1 (human), BiFC fusion (human), …
Assay: split reporter; COS-7 cells on coverslips transfected with pExp-VN173 and pExp-VC155 fusion vectors (500 ng each), fixed 24 to 31 h after transfection. Where indicated the cells were treated with the proteasome inhibitor MG132. Counted positive at 3 times or more the fluorescence of the 3 control conditions.
Conditions: remark: other sources report otherwise
With B1 the binding was “binds”.

These molecules were tested against T2, Rchy1 (mouse), BiFC fusion (mouse) in the same assay as above. Conditions: not given.
“Hoxa2 (mouse), BiFC fusion (from UniProt P31245 1-372)” was tested, and the binding was “binds”.

The molecules below were run against T3, RCHY1 (human), BiFC fusion (human) in the same assay as above. Conditions: not given.
For “HOXA1 (human), BiFC fusion (from UniProt P49639 1-335)”, the binding was “binds”.
For “HOXA2 (human), BiFC fusion (from UniProt O43364 1-376)”, the binding was “binds”.
For “HOXA3 (human), BiFC fusion (from UniProt O43365 1-443)”, the binding was “binds”.
For “HOXB1 (human), BiFC fusion (from UniProt P14653 1-301)”, the binding was “binds”.
In the case of “HOXB2 (human), BiFC fusion (from UniProt P14652 1-356)”, the binding is reported as “binds”.
For “HOXB5 (human), BiFC fusion (from UniProt P09067 1-269)”, the binding was “binds”.
With “HOXC4 (human), BiFC fusion (from UniProt P09017 1-264)” the binding was “binds”.
In the case of “HOXC11 (human), BiFC fusion (from UniProt O43248 1-304)”, the binding is reported as “binds”.
With “HOXD10 (human), BiFC fusion (from UniProt P28358 1-340)” the binding was “binds”.
With “Hoxa2^HD [139–198], BiFC fusion (from UniProt P31245 139-198) (domain or fragment)” the binding was “binds”.
In the case of “Hoxa2^ΔC [1–198], BiFC fusion (from UniProt P31245 1-198) (domain or fragment)”, the binding is reported as “binds”.
In the case of “Hoxa2^ΔHD [δ139–198], BiFC fusion (from UniProt P31245 1-372)”, the binding is reported as “binds”.
For “Hoxa2^ΔN [138–372], BiFC fusion (from UniProt P31245 138-372) (domain or fragment)”, the binding was “binds”.
With “p27^Kip1, BiFC fusion (from UniProt P46527 1-198)” the binding was “binds”.
